PMC9995517
No constants are given. Whether binding was seen depends on the method and setting. Sequences can lack the tags named with a protein.

Key:
[1] = molecular target: T1, tyrosyl-tRNA synthetase, wild type, recombinant Xpress-6xHis tagged (His-YARS1^WT) (human) (UniProt P54577); assay: co-IP; recombinant GST-PLS3 (2 µg) with recombinant His-YARS1 (2 µg) in PBS with 0.05% Tween-20, pH 7.4, 1 h at 4 °C; YARS1 immunoprecipitated with YARS antibody; Western blot for YARS1 and PLS3; both purified
T1 sequence: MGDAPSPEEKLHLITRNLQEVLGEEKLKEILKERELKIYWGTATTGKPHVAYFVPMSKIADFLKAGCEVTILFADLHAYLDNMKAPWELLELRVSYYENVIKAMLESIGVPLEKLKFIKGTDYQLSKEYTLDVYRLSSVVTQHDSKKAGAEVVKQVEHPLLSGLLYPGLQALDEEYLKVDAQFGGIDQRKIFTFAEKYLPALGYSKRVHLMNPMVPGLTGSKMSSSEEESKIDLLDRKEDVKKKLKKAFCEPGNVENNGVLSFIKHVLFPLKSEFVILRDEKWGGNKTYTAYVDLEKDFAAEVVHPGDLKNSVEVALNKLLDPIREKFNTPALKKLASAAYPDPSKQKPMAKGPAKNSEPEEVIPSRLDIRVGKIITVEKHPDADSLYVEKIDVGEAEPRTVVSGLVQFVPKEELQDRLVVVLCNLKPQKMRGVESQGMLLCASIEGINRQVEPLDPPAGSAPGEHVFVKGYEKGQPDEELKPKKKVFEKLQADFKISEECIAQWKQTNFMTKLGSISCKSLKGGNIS

[2] = molecular target: T1, tyrosyl-tRNA synthetase, wild type, recombinant Xpress-6xHis tagged (His-YARS1^WT) (human); assay: pull-down; recombinant His-YARS1 preincubated individually with GST-PLS3 or α-actinin and magnetic Dynabeads, 20 min at room temperature; 50 mM NaP pH 8.0, 300 mM NaCl, 0.01% Tween-20; four washes; imidazole elution; SDS-PAGE, Coomassie; both purified

binding [2]: no binding
B1: recombinant GST-tagged PLS3 (protein, UniProt P13797 1-630)
chain: MDEMATTQISKDELDELKEAFAKVDLNSNGFICDYELHELFKEANMPLPGYKVREIIQKLMLDGDRNKDGKISFDEFVYIFQEVKSSDIAKTFRKAINRKEGICALGGTSELSSEGTQHSYSEEEKYAFVNWINKALENDPDCRHVIPMNPNTDDLFKAVGDGIVLCKMINLSVPDTIDERAINKKKLTPFIIQENLNLALNSASAIGCHVVNIGAEDLRAGKPHLVLGLLWQIIKIGLFADIELSRNEALAALLRDGETLEELMKLSPEELLLRWANFHLENSGWQKINNFSADIKDSKAYFHLLNQIAPKGQKEGEPRIDINMSGFNETDDLKRAESMLQQADKLGCRQFVTPADVVSGNPKLNLAFVANLFNKYPALTKPENQDIDWTLLEGETREERTFRNWMNSLGVNPHVNHLYADLQDALVILQLYERIKVPVDWSKVNKPPYPKLGANMKKLENCNYAVELGKHPAKFSLVGIGGQDLNDGNQTLTLALVWQLMRRYTLNVLEDLGDGQKANDDIIVNWVNRTLSEAGKSTSIQSFKDKTISSSLAVVDLIDAIQPGCINYDLVKSGNLTEDDKHNNAKYAVSMARRIGARVYALPEDLVEVKPKMVMTVFACLMGRGMKRV
binding [1]: no binding (tested: 2 µg of each protein)
